Data as given in PMC10163288.
This is one part of the list.

B1: il10ra_site1_normal_mot_HHH_b1_02881_000000046_0001_1_20_H_._HHH_b1_02511_af2_0001_0000900024_0000001_0 (protein)
chain: SSSSSDVEERAEKIFEQLEELLERRDADEFYRLIRELIELAVEYNSEEVLKLVREILERLSSSSS
B2: il10ra_site1_normal_mot_HHH_b2_01397_000000078_0001_23_39_H_._HHH_b2_02890_0002_0000100003_0000001_0 (protein)
chain: SSSSSVAERSVRRLLEAAKHIDDPEYVKLTLKFAKALARSENNEELEREIEKVEKELEELLSSSS
B3: il10ra_site1_sap_7_mot_HHH_b2_00984_000000042_0001_1_20_H_._HHH_b1_04665_0001_0000200011_0000002_0_0001 (protein)
chain: SSSSDQEVVELLREAFRLMLRGNPEEAKEVLEEARQLAEEANDERALKMVRDLLAIIESHSSSSS
B4: il10ra_site1_sap_24_mot_HHH_b1_04582_000000276_0001_1_18_H_._HHH_b2_03365_0001_0000400018_0000001_0_0001 (protein)
chain: SSSSSDIAEVAQEALELAIRLGDAETVRAIWRLVREYFEKGDPEIEEELEELLEELRERGSSSSS
B5: il10ra_site1_sap_16_mot_HHH_b1_04573_000000273_0001_43_57_H_._HHH_b1_02099_af2_0001_0000700024_0000001_0_0001 (protein)
chain: SSSSDSHELAERAVKELIELVEEGNPEEAEKLAEKVEEELKELGDPLAARVIKWAIEVQRSSSSS
B6: il10ra_site1_sap_33_mot_HHH_b2_02876_000000208_0001_1_16_H_._HHH_b2_05821_af2_0001_0000300021_0000002_0_0001_af2pred_dldesign_0_af2pred (protein)
chain: SSSSSDVEEVARRLRELLRAGRFDEADALLAEATAELEAKGDADAVRLLRVSYEIQKASISSSSS
B7: il10ra_site1_sap_37_mot_HHH_b2_02900_000000189_0001_39_52_H_._HHH_b2_02951_af2_0001_0000200016_0000001_0_0001_af2pred_0001 (protein)
chain: SSSSDEEAEEIEEELKELLKRGDLEEARELLKRLLELALELKNPRLLRAAKEILIAIKRLSSSSS
B8: il10ra_site1_sap_21_mot_HHH_b2_08186_000000021_0001_43_56_H_._HHH_b2_02413_af2_0001_0000100002_0000001_0_0001_af2pred_dldesign_0_af2pred (protein)
chain: SSSSDPEAEFDRLEAELKAAIAAGKREEATALHLRLAEIARATDDPAWVARLRELAREIFSSSSS
B9: il10ra_site1_sap_32_mot_HHH_b1_05088_af2_000000046_0001_20_36_H_._HHH_b2_04743_0001_0000100005_0000002_0_0001_af2pred_0001 (protein)
chain: SSSSTELAQEVLELLRRILELEREGNPEEAKELAEEAEELARRGNSLNLEAQVKFLEKLLNSSSS
B10: il10ra_site1_normal_mot_2c1a291787c6f40772924d4e9068d803_0001_af2_000000222_0001_34_48_H_._HHH_b1_04090_0001_0000200015_0000001_0_af2pred_0001 (protein)
chain: SSSSSSEEELFHLLIKAYLLARRDPEKAQEVLEEAIEIAEEEGDRLARTALELLLRLIENSSSSS
B11: il10ra_site1_sap_13_mot_HHH_b1_00638_000000236_0001_22_38_H_._HHH_b1_02696_0001_0000200005_0000001_0_0001 (protein)
chain: SSSSSSEELYRLIRRANELLKEGNPEEAREVLEEAKELAEQENNWTAKIQLEFIEKELESSSSSS
B12: il10ra_site1_normal_mot_b26a303360aa2756ef5b79665ce52f45_0001_000000179_0001_1_11_H_._HHH_b1_06404_af2_0001_0000300005_0000002_0 (protein)
chain: SSSSDEETYELARRAAELSSRYEEEGDERLREEVEELLEEARELGNPVVEFSIEHALRDISSSSS
B13: il10ra_site1_sap_18_mot_HHH_b1_06348_000000162_0001_1_15_H_._HHH_b1_00849_af2_0001_0000300003_0000001_0_0001_af2pred_0001 (protein)
chain: SSSSDEEVVELLFEALELLARGNPEEAHKLVEEAEELAKELGDEELRRAVEILLRYIRLTGSSSS
B14: il10ra_site1_sap_19_mot_HHH_b1_03314_af2_000000278_0001_42_55_H_._HHH_b1_06606_0001_0000500031_0000001_0_0001_af2pred_0001 (protein)
chain: SSSSSSDRARRSVEILLWAAETLDDPRLIELSLRLARQVAEAANDPELEREVERVEEELSSSSSS
B15: il10ra_site1_normal_mot_0750aae41c39e4229e2ea8fa354cc919_0001_1_000000144_0001_37_51_H_._HHH_b2_06980_0001_0000300019_0000001_0_af2pred_0001 (protein)
chain: SSSSDAEVAVRFFARLDRFIRKLGDPEAVEESAEAAKRALKSAGDEEALEELERVLRELLSSSSS
B16: il10ra_site1_normal_mot_fda5df8c19bda1ddfcc41857df859eb0_0001_1_000000120_0001_35_49_H_._HEEHE_1459_0001_0000300017_0000001_0_af2pred_0001 (protein)
chain: DREERAEISVRILAELAGVPEFEVEVENNSVEVTLNGDDEAVRRAEISIEAAARLLNIEISVETL
B17: il10ra_site1_sap_22_mot_HHH_b1_05056_000000217_0001_1_20_H_._HHH_b2_01486_0001_0000300015_0000001_0_0001_af2pred_0001 (protein)
chain: SSSSSITQEVMKILREVVELAREGDEEEAEKLLEEAEELAERANNEILKFIVEFLKEHLNSSSSS
B18: il10ra_site1_normal_mot_HHH_b2_00033_000000036_0001_41_54_H_._HHH_b1_00748_0001_0000200008_0000001_0 (protein)
chain: SSSSDAAELAAAASRLAIRLNDPELFQRLWELAKRIAEEGDPELREELQEIVEELEELISSSSSS
B19: il10ra_site1_normal_mot_HHH_b2_00134_af2_000000004_0001_38_52_H_._d2a7ab61c71473013b01aa2592132fbc_0001_1_0001_0000300016_0000002_0 (protein)
chain: TEQVRKSIKRQLEQGVPPETVLEAVELLLLQRGLSPEEILEIILEALELLGDPELSEEVREKLEK
B20: il10ra_site1_sap_36_mot_HHH_b2_03434_000000017_0001_1_19_H_._HHH_b1_05522_af2_0001_0000300021_0000001_0_0001_af2pred_0001 (protein)
chain: SSSSSEEEKQIRAAKLLLKWALEINNPEAVETALASLKRLAELLNDEEAQELVEEVEKELSSSSS
B21: il10ra_site1_normal_mot_HHH_b1_01874_000000035_0001_1_20_H_._HHH_b2_03159_0001_0000300014_0000001_0 (protein)
chain: SSSSSDEAEEAYRLLREALELLAEGNPEEAERVVEEALEVAEEGGNDVFRFSIELLKRQVSSSSS
B22: il10ra_site1_normal_mot_b26a303360aa2756ef5b79665ce52f45_0001_000000179_0001_1_11_H_._HHH_b2_02191_af2_0001_0000600025_0000001_0_af2pred_0001 (protein)
chain: SSSSSDRAELSEEAQRILRKARKIEDPEEVEELLEQAKKLAEEANNLVLRVAIEFAAKLDSSSSS
B23: il10ra_site1_normal_mot_HHH_b1_02004_000000220_0001_1_19_H_._HHH_b2_04613_af2_0001_0000500033_0000001_0 (protein)
chain: SSSSTDEEFERVKELVEEAAELIENGNPEEAEKLLEEAERLAEESNNEALRFSVEHALRLLSSSS
B24: il10ra_site1_sap_23_mot_d12dd14985caa292ad795d5b907f3ec3_0001_1_af2_000000000_0001_1_12_H_._32ed9a5367f3ec2ad68db539d97dae7e_0001_0001_0000600009_0000001_0_0001 (protein)
chain: SSSSSEEEKRIKELIEEAEELLENGDPREAVRVLAEAVRAAFHAKNRELLRELWEIIKKVDSSSS

target: il10ra, Q13651; test: yeast display titration

Apparent Kd, inactive:
B1 no binding seen
B2 no binding seen
B3 no binding seen
B4 no binding seen
B5 no binding seen
B6 no binding seen
B7 no binding seen
B8 no binding seen
B9 no binding seen
B10 no binding seen
B11 no binding seen
B12 > 657 nM
B13 no binding seen
B14 no binding seen
B15 no binding seen
B16 no binding seen
B17 no binding seen
B18 no binding seen
B19 no binding seen
B20 no binding seen
B21 no binding seen
B22 no binding seen
B23 no binding seen
B24 no binding seen

2 entries drawn at random from the list so far:
Apparent Kd, inactive:
B16 no binding seen
B14 no binding seen
